Consider one molecule from US20230250139A1 (MIT, published 2023).

These are yes or no findings as the source states them, for the method shown. Some binding calls cover weakened binding; strength is not graded here. Sequences can lack the tags named with a protein.

The assay addresses UBC-DHF40-Linker14-HA. As to the kind of experiment: self-assembly in cultured mouse hippocampal neurons; anti-HA immunofluorescence, confocal.

B1: UBC-DHF40-Linker14-HA (protein)
chain: MSSEKEELRERLVKICVELAKLKGDDTLKAAEAAEEAFRLVVLAAMLAGIDSSEVLELAIRLIKTCVVLAAMEGYDISEACRAAAEAFTRVAMAALRAGITSSLVLKAAIELIKECVLNAAVEGYDISEACRAAAEAFKRVAEAAKRAGITSLETLLRAIEEIRKRVEEAQREGNDISEACRQAAEEFRKKAEELKRRGDVGGSGGTGGSGGTGYPYDVPDYA
For the molecule B1, the binding entry is “binds”.
